Results published in patent publication US20240041922A1, “METHODS AND COMPOSITIONS” (Monash University, priority 2020, published 2024).
These are yes or no findings as the source states them, for the method shown. Some binding calls cover weakened binding; strength is not graded here.

By UniProt entry, the sequences of proteins in these tests, tags left out. Residues count along the entry.
UniProt P51681: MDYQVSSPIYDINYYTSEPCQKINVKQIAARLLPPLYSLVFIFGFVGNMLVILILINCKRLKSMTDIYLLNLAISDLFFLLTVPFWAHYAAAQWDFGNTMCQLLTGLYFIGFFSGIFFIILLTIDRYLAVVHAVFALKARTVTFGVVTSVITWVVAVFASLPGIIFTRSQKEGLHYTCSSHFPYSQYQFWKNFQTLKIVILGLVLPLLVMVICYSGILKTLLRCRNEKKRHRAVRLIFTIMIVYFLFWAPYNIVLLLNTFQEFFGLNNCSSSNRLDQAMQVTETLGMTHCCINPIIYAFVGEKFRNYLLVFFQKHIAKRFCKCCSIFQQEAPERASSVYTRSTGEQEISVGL
UniProt P51682: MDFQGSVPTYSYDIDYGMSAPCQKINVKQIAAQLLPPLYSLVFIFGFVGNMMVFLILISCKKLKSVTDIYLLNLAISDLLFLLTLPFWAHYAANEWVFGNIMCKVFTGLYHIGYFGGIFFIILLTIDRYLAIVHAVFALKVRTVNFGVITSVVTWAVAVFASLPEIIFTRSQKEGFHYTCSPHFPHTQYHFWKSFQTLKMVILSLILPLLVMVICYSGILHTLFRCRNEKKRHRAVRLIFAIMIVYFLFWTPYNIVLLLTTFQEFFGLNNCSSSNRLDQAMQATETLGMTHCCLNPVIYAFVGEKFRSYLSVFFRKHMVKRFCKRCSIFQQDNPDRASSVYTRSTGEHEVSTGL
UniProt P43490, residues 27-491: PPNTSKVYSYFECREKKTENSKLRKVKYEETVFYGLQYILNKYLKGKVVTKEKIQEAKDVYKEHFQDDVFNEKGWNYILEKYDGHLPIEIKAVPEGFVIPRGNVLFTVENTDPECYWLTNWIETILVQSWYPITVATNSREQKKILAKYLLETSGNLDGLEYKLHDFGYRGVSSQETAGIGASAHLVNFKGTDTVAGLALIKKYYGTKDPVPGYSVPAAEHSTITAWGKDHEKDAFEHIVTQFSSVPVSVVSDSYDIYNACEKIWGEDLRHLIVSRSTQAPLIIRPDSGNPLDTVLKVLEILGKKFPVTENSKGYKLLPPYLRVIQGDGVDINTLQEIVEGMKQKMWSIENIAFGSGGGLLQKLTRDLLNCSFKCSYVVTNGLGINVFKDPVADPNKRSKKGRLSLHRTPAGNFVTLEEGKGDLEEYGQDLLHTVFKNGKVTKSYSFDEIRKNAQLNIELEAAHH

Experiments:
[1] = target: GST-fused recombinant human CCR5 (Abcam) (human) (UniProt P51681); assay: ELISA on coated hrCCR5 against BSA
[2] = target: recombinant mouse CCR5 (MyBioSource) (mouse) (UniProt P51682); assay: competition ELISA: plate coated with mrCCR5, 100 nM hrNAMPT(1) with rising mrCCL4; bound hrNAMPT(1) detected with a biotinylated anti-NAMPT antibody, BSA deducted
[3] = target: GST-fused recombinant human CCR5 (Abcam) (human) (UniProt P51681); assay: ELISA: plate coated with hrCCR5, bound hrNAMPT(1) detected with a biotinylated anti-NAMPT antibody, non-specific binding to BSA deducted

binding [1]: binds
binding [2]: binds
binding [3]: binds
Substance: human recombinant NAMPT(1) (recombinant human visfatin, PeproTech) (from UniProt P43490 27-491) (ligand)
